Patent publication US12257237B2 (priority 2017, dated 2025)
“And” between values parts separate entries of the source, which are not always exact repeats. Equal values may be shown once. Further values from the same series stand in other lists.

Key:
TC-71 Ewing sarcoma = assay: Antitumour activity in TC-71 Ewing sarcoma xenograft model; format: in vivo, Athymic nude mice; conditions: 50 mg/kg i.v. q7dx3
Protocol: (§1) Experiments were performed with female Athymic nude mice, 9-10 weeks old obtained from Harlan Laboratories (Udine, Italy). They were maintained under Specific Pathogen Free conditions with constant temperature and humidity, according to the institutional guidelines.
(§2) Tumour growth mice was monitored two/three times a week (depending on tumour growth rate, to avoid unnecessary stress to the animals) by Vernier caliper. Mice were sacrificed when tumour reached a mean weight of 2±0.5 gr. The antitumour activity will be expressed as T/C %, where T and C were the mean tumour weight of treated and control groups, respectively. Mice were monitored daily and weighted at least two times a week. Tolerability was evaluated on the basis of body weight loss (BWL) and clinical observation.
(§3) Statistical analysis was performed with GraphPad Prism version 6.01 software (GraphPad software, Inc., La Jolla, CA, USA). ANOVA test was performed to evaluate if there were statistically significant differences between treated and control groups.
5×10^6 TC-71 cells were inoculated subcutaneously in the right flank of mice. The growing tumour masses were measured with the aid of a Vernier caliper, and the tumour weights (1 mm^3=1 mg) were calculated by the formula: length×(width) 2/2. When tumour load achieved about 100 mg, mice were randomized into the experimental groups and treatment started.

[1] = system: DD013 dedifferentiated liposarcoma; assay: Antitumour activity in DD013 dedifferentiated liposarcoma xenograft model; format: in vivo, Athymic nude mice; conditions: Doxorubicin 8 mg/kg q7dx2
Protocol: as §1, §2, §3
Briefly, xenografts were obtained by transplanting 3-4 mm tumour fragments s.c. in the flanks of mice. The growing tumour masses were measured with the aid of a Vernier caliper, and the tumour weights (TW, 1 mm^3=1 mg) were calculated by the formula: length×(width) 2/2. When tumour load achieved about 200-400 mg, mice were randomized into the experimental groups.

Row | Compound | TC-71 tumour weight, individual mice (TC-71 Ewing sarcoma; day 9 from inoculum) | TC-71 tumour weight, individual mice (TC-71 Ewing sarcoma; day 16 from inoculum) | TC-71 tumour weight, individual mice (TC-71 Ewing sarcoma; day 18 from inoculum) | TC-71 tumour weight, individual mice (TC-71 Ewing sarcoma; day 25 from inoculum) | DD0113 tumour weight, individual mouse ([1]; day 65 from inoculum) | DD0113 tumour weight, individual mouse ([1]; day 69 from inoculum)
1 | CCc1c2c(nc3ccc(OC(=O)N4CCC(N5CCCCC5)CC4)cc13)-c1cc3c(c(=O)n1C2)COC(=O)[C@]3(O)CC [Irinotecan, reference compound] | 77.9 mg and 61.1 mg and 51.2 mg and 28.4 mg | 5.1 mg and 7.0 mg and 6.9 mg and 22.9 mg | 1.9 mg and 2.3 mg and 5.1 mg and 16.6 mg | 7.2 mg and 3.1 mg |  | 
2 | COc1cccc2c1C(=O)c1c(O)c3c(c(O)c1C2=O)C[C@@](O)(C(=O)CO)C[C@@H]3O[C@H]1C[C@H](N)[C@H](O)[C@H](C)O1 [Doxorubicin, reference compound] |  |  |  |  | 837.9 mg and 1390.9 mg and 744.7 mg and 532.1 mg | 909.3 mg and 1605.4 mg and 834.8 mg and 860.3 mg
